The text below walks through data of PMC8101327.

Amino acid sequences for entries named in this document (tags omitted).
UniProt Q05397: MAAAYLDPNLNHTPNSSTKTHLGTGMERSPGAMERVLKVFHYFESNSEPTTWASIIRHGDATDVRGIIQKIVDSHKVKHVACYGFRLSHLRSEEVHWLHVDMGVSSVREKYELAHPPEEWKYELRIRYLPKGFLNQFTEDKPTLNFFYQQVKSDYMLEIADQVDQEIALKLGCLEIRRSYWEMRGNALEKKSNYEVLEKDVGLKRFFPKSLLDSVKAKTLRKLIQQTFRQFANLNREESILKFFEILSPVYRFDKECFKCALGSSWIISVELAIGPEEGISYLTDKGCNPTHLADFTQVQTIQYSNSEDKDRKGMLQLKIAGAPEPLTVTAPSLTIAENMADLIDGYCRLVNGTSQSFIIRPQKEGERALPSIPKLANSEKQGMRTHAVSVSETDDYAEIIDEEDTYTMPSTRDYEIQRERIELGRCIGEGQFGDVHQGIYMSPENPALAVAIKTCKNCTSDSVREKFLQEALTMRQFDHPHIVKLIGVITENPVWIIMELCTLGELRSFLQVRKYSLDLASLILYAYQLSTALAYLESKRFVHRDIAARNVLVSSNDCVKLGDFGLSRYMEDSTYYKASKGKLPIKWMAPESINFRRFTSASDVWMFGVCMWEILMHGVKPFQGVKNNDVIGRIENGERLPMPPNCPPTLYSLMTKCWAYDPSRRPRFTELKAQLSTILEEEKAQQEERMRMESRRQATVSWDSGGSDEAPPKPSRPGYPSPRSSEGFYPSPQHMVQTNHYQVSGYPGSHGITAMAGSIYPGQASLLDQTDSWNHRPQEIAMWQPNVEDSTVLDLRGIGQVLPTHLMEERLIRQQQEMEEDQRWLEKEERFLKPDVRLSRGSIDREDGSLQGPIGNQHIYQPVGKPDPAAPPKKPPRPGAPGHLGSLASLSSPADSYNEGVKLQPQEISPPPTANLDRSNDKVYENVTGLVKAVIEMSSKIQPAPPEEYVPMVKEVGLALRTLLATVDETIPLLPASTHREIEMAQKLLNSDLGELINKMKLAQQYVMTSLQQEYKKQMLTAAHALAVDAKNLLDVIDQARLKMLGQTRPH

In the experiment the target is T1, Brain and Acute Leukemia, Cytoplasmic (BAALC) (human) (UniProt Q8WXS3).
T1 sequence: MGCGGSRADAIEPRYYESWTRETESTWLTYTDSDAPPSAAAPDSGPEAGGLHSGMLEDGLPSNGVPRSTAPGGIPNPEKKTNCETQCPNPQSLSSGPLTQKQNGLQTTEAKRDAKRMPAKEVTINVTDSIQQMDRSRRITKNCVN
Put plainly: co-IP; MCF-7-EV and MCF-7-BAALC cell lysates (500 µg) incubated with BAALC antibody, FAK antibody or IgG control and Protein A/G agarose overnight at 4°C; beads washed 3 times in TBST; BAALC and FAK detected by western blotting. (Immunoblotting shows a protein as a band on a membrane.)

No constants are given. Whether binding was seen depends on the method and setting. Binding seen in cells or lysates may run through a third protein. Some binding calls cover weakened binding; strength is not graded here.

With “focal adhesion kinase (FAK) (from UniProt Q05397 1-1052)”, the binding entry is given as “binds”.
